The record followed here is publication PMC5085165.

The assay concerns the target p62 (mouse (endogenous in MEFs)) (UniProt Q64337). The experiment in a line: co-IP; WT MEFs lysed, immunoprecipitated with an anti-p62 antibody or control IgG, Western blot with an anti-GEF-H1 antibody; also after starvation-induced autophagy (interaction increased). In general terms: A western blot detects proteins with antibodies after separation by electrophoresis.

No constants are given. Whether binding was seen depends on the method and setting. In cells and extracts the contact can be indirect. Some results given as binding are weak or reduced against the parent protein; the word gives no strength.

B1: GEF-H1 (protein, UniProt Q60875 1-985)
chain: MSRIESLTRARIDRSKEQATKTREKEKMKEAKDARYTNGHLFTTISVSGMTMCYACNKSITAKEALICPTCNVTIHNRCKDTLANCTKVKQKQQKAALLRNNTALQSVSLRSKTTTRERPTSAIYPSDSFRQSLLGSRRGLSSLSLAKSVSTTNIAGHFNDESPLGLRQILSQSTDSLNMRNRTLSVESLIDEGVEVFYNELMSDFEMDEKDFEADSWSLAVDSSFLQQHKKEVMKKQDVIYELIQTELHHVRTLKIMTRLFRTGMLEELQMEPEVVQGLFPCVDELSDIHTRFLNQLLERRRQALCPGSTRNFVIHRLGDLLISQFSGSNAEQMRKTYSEFCSRHTKALKLYKELYARDKRFQQFIRKMTRSAVLKRHGVQECILLVTQRITKYPVLINRILQNSHGVEEEYQDLASALGLVKELLSNVDQDVHELEKEARLQEIYNRMDPRAQTPVPGKGPFGRDELLRRKLIHEGCLLWKTATGRFKDVLLLLMTDVLVFLQEKDQKYIFTSLDKPSVVSLQNLIVRDIANQAKGMFLISSGPPEMYEVHAASRDDRTTWIRVIQQSVRLCPSREDFPLIETEDKAYLRRIKTKLQQKNQALVELLQKNVELFAEMVHFQALKAGFVGMPPPALPRGLFRLESFESLRGERLLKDALREVEGLKDLLLGPCVDLPMTSREPALPLDSDSGSCPGVTANGEARTFNGSIELCRADSDSSQKDRNGNQLRSPQEEVLQPLINLYGLLHGLQAVVVQQERLMEALFPEGPERWEKLSRANSRDGEAGRAAVASVTPEKQATELALLQRQHTLLQEELRRCQRLGEERATEAGSLEARLRESEQARALLEREAEEIRRQLAALGQNEPLPAEAPWARRPLDPRRRSLPAGDALYLSFNPPQPSRGHDRLDLPVTVRSLHRPFDDREAQELGSPEDRLQDSSDPDTGSEEEVSSRLSPPHSPRDFTRMQDIPEETESRDGEPTASES
As to B1, the binding entry is listed as “binds”.
